This note sets out measurements from publication PMC4759635.

No constants are given. Whether binding was seen depends on the method and setting. Some entries that bind do so weakly or less than the wild type.

The target in experiment [1] is T1, Mcm5 (MCM subunit 5 of the Drosophila melanogaster CMG helicase) (Drosophila melanogaster) (UniProt Q9VGW6).
T1 sequence: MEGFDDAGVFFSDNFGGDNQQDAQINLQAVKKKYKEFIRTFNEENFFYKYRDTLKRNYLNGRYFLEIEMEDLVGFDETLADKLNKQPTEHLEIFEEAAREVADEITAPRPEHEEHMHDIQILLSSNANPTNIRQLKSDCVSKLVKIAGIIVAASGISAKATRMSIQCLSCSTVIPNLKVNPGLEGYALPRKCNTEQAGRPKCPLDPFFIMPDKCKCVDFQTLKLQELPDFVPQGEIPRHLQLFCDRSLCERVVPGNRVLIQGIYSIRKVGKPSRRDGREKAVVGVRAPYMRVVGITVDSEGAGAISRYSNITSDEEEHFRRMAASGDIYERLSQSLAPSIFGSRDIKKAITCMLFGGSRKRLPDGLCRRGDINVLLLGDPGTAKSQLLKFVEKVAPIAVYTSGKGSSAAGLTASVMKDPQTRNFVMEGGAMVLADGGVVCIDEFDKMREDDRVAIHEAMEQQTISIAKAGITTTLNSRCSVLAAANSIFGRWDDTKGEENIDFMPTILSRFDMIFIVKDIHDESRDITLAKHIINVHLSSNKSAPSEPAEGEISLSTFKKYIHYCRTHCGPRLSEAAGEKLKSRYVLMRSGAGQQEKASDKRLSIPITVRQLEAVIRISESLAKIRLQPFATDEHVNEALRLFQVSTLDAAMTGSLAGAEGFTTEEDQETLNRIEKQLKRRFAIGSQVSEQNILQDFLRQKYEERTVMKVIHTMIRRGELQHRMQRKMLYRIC
Put plainly: cryo-EM structure; purified Drosophila CMG; ATPγS–CMG–DNA fork complex (compact ATPase 7.4 Å, relaxed ATPase 9.8 Å) and ATP–CMG without DNA (compact and relaxed forms); maps read by rigid-body docking of yeast Mcm2-7 (PDB 3JA8), human GINS (PDB 2Q9Q) and RecJ (PDB 1IR6); buffer A: 25 mM Hepes pH 7.6, 50 mM sodium acetate, 10 mM magnesium acetate, 1 mM DTT; both purified.

Experiment [2] concerns the target T2, Mcm2 (MCM subunit 2 of the Drosophila melanogaster CMG helicase) (Drosophila melanogaster) (UniProt P49735).
T2 sequence: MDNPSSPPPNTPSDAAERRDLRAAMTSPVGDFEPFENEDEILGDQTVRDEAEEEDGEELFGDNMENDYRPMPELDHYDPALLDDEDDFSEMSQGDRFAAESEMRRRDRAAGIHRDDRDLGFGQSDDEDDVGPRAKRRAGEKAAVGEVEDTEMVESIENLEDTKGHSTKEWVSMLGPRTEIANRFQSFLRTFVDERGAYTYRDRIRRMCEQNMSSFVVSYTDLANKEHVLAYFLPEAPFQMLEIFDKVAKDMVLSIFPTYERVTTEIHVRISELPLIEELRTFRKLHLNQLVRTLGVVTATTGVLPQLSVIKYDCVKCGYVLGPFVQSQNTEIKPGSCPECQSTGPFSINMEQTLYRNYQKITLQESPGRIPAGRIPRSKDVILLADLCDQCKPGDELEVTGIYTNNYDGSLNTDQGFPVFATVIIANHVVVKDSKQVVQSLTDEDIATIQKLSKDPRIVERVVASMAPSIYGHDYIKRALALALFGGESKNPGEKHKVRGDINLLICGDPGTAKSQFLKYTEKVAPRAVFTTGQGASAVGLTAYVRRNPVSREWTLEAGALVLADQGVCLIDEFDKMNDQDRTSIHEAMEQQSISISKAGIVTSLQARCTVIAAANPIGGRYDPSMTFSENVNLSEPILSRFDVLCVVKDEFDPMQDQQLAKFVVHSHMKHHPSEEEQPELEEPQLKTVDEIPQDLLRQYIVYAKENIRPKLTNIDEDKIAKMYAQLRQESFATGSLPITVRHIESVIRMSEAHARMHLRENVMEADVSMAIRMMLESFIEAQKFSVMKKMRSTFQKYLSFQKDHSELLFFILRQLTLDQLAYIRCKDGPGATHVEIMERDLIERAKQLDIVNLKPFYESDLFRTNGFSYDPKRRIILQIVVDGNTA
The description is as above.

B1: Cdc45 (subunit of the Drosophila melanogaster CMG helicase) (protein, UniProt O96989 1-575)
chain: MFVQDLRNDFYRQLVGKRILIVVNYDIDAICASRILQALFKYDHMLYTVVPIMGVTGLKRAYGEHQGDVKYVVLVNCGGCVDIVELLQPSDDVTFFICDSHRPLDVCNIYSDRQVCILGDASLEENIPAFETIFYDSEGEDEDEDESSDTEQQHDDSGAGESDQEDQAPRSRKLSRLERHEQRILKQRARRQWESERDRIMFEYTQFSYYGRSAALMVFELAWKLSKDNMDLLWWAIVGITEQLLLGKIESGAYTLELEQIQSHVSRLTNKTNDQNTMSASKITFENDLHLVLYRHWPVTESMRYSRYSSCQLKLWTLRGEKRLHELLLEMGLPLVHARQTYGAMDLVLRKEFFSMVERLAEKYDIADIVYGTFTLSYGYRSRYAAADYVYALLAIMESVKKHKTPEDCFLEASDALSRQHKQLLSAGIDQAKLLHAAVFRQVQSSLEARQVHSAGSFFYYVLQEEHAFFSYPYALGLLARFLLRGHVATSRARQASDLPLIASCPLNASEGMCLLVGIVPVREDSPRNFFGKAFEQAAQKSGVALLQDFFEPAVVQLRQSDLTRFLDSLTVLLA
On to B1, for which the binding result in experiment [1] and in experiment [2] was “binds” in each case.

B2: Psf2 (GINS component of the Drosophila melanogaster CMG helicase) (protein, UniProt Q9VQY9 1-203)
chain: MDPSIIEFIGEKCMISIIPNFSNEPLHLIYGPVGPFRAGFPVFVPLWMATHLRKQQKCRIVPPEWMDMDILEEIKEEEKRSKFFTKMPCEHYMVVAQLVMSTAPDDVPRCEELRTVIKDIFDIRESKLRTSIDAFIKGEGTYAKLDNLTLLEIHSVRPILPYSLDHIARYQRTATASQRDTSMLSASMAGSSSGPNSNSLFSQ
Regarding B2, in experiment [1], the binding entry is “binds”.
